Positions count from the first letter of the chain named. No constants are given. Whether binding was seen depends on the method and setting. In cells and extracts the contact can be indirect. Some results given as binding are weak or reduced against the parent protein; the word gives no strength. Sequences can lack the tags named with a protein.

Chains of the proteins cited; added tags and fusions are not shown. Residues count along the entry.
UniProt P11835, residues 24-771: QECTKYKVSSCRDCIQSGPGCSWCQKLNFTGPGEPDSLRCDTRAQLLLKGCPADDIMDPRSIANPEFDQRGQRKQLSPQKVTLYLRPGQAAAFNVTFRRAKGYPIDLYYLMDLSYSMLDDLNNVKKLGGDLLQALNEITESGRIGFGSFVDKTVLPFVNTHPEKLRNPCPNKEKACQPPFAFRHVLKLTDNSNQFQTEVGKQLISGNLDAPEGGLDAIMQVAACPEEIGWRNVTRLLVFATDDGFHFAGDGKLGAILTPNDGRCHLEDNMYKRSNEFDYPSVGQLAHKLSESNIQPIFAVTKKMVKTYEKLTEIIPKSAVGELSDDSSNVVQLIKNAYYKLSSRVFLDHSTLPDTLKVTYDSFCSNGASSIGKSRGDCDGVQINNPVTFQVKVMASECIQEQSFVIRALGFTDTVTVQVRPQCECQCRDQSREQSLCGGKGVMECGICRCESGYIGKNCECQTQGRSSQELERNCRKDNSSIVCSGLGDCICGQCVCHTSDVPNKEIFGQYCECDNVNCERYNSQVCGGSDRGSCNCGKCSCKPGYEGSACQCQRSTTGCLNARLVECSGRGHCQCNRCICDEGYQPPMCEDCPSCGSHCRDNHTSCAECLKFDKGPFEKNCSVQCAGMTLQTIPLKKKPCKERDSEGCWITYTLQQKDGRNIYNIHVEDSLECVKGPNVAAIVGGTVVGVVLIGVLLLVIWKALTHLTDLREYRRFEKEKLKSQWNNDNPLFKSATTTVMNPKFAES

For one substance, binding results are on record in paper doi:10.1101/2025.09.10.675342.

For assay [1], the target named is T1, CLIP-tagged mouse SIRPα T37I, E40V, V43F, S44F, A46G (mouse) (UniProt P97797).
T1 sequence (chain, CLIP-Surface 547 on the CLIP tag): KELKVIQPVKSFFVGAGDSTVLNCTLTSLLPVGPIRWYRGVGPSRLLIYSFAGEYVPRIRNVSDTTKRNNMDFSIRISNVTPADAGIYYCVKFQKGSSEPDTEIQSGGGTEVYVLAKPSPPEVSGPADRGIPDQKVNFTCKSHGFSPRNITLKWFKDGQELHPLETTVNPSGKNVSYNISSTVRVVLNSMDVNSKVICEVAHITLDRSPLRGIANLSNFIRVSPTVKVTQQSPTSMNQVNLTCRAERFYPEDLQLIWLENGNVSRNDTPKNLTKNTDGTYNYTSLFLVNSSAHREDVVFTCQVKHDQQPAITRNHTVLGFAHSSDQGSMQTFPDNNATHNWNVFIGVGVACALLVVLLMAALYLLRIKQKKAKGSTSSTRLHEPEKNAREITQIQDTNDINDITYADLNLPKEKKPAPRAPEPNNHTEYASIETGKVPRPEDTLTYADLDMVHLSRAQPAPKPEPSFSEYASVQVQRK
The assay is described as follows: FRET or BRET.

The target of assay [2] is T2, CLIP-tagged mouse SIRPα R91T (mouse) (UniProt P97797).
T2 sequence (chain, CLIP-Surface 547 on the CLIP tag): T1 sequence (chain, CLIP-Surface 547 on the CLIP tag) with I6T, V9E, F12V, F13S, G15A, R60T
The assay is described as follows: FRET or BRET. (BRET reads energy transfer from a luciferase to a nearby fluorophore.)

As for “SNAP-tagged mouse CD18 (acceptor-labeled CD18) (from UniProt P11835 24-771) (receptor)”, the binding result in assay [1] was “binds”; in assay [2], “no binding”.
